# The supplement of paper PMC3334620
# Over roughly 33,000 sequences, “E-score (-0.5 to 0.5)” has its median near -0.016; the highest 2% begin near 0.3. This is one part of the list.
# Target: T1, Yer184c (UniProt P39961)
# T1 sequence: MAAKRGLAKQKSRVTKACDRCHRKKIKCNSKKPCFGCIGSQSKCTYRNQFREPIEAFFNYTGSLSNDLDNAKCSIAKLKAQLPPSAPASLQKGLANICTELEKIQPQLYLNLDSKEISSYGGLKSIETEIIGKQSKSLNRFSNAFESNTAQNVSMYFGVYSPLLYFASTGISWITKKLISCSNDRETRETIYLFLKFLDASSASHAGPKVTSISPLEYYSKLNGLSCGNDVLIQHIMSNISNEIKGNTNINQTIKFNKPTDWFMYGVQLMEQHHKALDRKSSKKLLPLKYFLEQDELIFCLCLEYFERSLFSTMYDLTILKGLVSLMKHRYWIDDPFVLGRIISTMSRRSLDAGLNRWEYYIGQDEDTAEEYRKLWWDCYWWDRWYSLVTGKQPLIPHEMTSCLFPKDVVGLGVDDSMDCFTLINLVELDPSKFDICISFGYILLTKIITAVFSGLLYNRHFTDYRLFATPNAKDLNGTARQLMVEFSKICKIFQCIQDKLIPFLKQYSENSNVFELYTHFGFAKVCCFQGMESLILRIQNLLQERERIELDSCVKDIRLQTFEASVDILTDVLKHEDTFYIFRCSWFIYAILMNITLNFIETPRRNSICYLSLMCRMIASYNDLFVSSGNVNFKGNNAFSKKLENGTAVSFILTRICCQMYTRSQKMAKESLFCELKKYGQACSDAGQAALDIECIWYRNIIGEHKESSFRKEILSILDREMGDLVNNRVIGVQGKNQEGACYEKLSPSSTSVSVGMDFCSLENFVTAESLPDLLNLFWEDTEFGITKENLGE
# Experiment: PBM E-score (8-mer binding enrichment) (E-score (-0.5 to 0.5)); higher = stronger / more preferred TF binding
# Conditions: protein concentration: 100 nM; construct: GST-full length
# Method in brief: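 Universal all-10-mer Agilent arrays, fresh or stripped once, were converted to double-stranded form by primer extension. GST-tagged yeast transcription factors from PURExpress in vitro transcription/translation, full-length or DNA-binding domain only, were applied at about 100-200 nM and detected with fluorescent anti-GST. After masliner normalisation, the Universal PBM Analysis Suite scored each ungapped eight-base word together with its reverse complement by E-score.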
row,Sequence,PBM E-score
1,GGATCGAC,0.0648
2,ACAACCCT,-0.208
3,ATTTGAAA,0.194
4,ACATCAAA,0.0764
5,CCAAAGGA,-0.102
6,CAGTCCAC,-0.325
7,CCAGGTAG,-0.2
8,ATCAGGAT,0.115
9,CTTCAAAG,0.103
10,ATGTACAG,0.054
11,GCTTATCC,0.0641
12,CAATTCGA,-0.0612
13,CGACGTAG,-0.294
14,CCTCTACG,-0.114
15,GCAGATCA,-0.152
16,ATTATAGG,0.0984
17,AAACCAAC,0.166
18,CAAGTGCA,-0.298
19,ATCGTATA,0.17
20,AATTACAC,0.0814
21,AAACCTAT,0.0484
22,GCAATTAC,0.0435
23,TAATCAAA,0.274
24,CAATAAGG,-0.165
25,ACTGACCA,-0.162

row,Sequence,PBM E-score
1,ATGGCGGC,0.118
2,ACACCAAT,0.0441
3,ACCAGGAT,-0.107
4,CCTCCGGC,0.3
5,CTATATGA,0.134
6,TCCTGACA,0.0359
7,CGAATTAG,0.116
8,GCGGACTA,0.165
9,CACCTTCG,0.0651
10,GGGTATAC,-0.0147
11,TCGCTGAA,0.0753
12,ATAAGTGG,0.02
13,AACGTGCG,-0.1
14,CTACTTCA,-0.0486
15,CGCACCAC,-0.139
16,AGGCAACA,-0.22
17,AGGCGGAA,0.195
18,GGGCGGTA,-0.0752
19,TCGCACAA,-0.0958
20,ATACATTG,0.063
21,ATGTAGGC,-0.114
22,GTGCATCA,0.0558
23,GGCAGCTA,0.00029
24,AGAGCGTC,-0.217
25,AGGTCAAT,-0.121

row,Sequence,PBM E-score
1,CCAACCCA,-0.328
2,ATTCAGGC,-0.057
3,CCACGGTC,-0.194
4,ACGACCAT,-0.221
5,AAAGGCGA,-0.124
6,GGCGCTAC,-0.185
7,ACACGGTG,0.00523
8,CGGATCGA,0.227
9,TAAAAAAA,0.203
10,ACTGTACA,-0.0614
11,GGTTGAGA,-0.00813
12,ACTTCTAC,-0.0211
13,TATCTGGA,0.00154
14,CACGCCGC,-0.0484
15,CGCCGACA,0.18
16,AGCGTGTC,-0.169
17,ATTCCTAG,-0.0295
18,CGGTGTGC,-0.15
19,ACGGCTTG,-0.0131
20,CAGCCAAC,-0.0894
21,CTATATAA,0.0877
22,AATATTCT,0.0516
23,CAGAACTG,0.219
24,AGCGGTAT,0.114
25,CGGACCCA,0.157

row,Sequence,PBM E-score
1,AACGTGAG,-0.0764
2,AAGGCAGG,-0.178
3,GCATTCCA,-0.242
4,ATGGTGAA,-0.00196
5,AAAACTAA,0.203
6,CTGATGCA,0.0132
7,ATGAATCC,-0.022
8,GTTAAGTA,0.0522
9,CGCATCCC,-0.259
10,CTCATATA,0.0315
11,AATATCGA,0.0873
12,ACGGGCCT,-0.134
13,CAGCCGAA,0.229
14,CACGGGAG,-0.108
15,CGCCGGTA,0.216
16,AAACTATT,0.119
17,GATCCGGC,0.354
18,CGCGAAAC,-0.0391
19,CGTACGTA,-0.207
20,AGCGCAGA,-0.104
21,ATCTAGGA,-0.00133
22,AATAAGGT,0.0627
23,ATGATAAG,0.174
24,ACAAGCGT,-0.171
25,ATCTTTAG,0.133

row,Sequence,PBM E-score
1,AGTCGCGC,0.0958
2,CCACTCGG,0.0777
3,TATACGCA,0.108
4,CCGATGAC,0.0358
5,CGATGACC,-0.102
6,CGTCCTGC,-0.188
7,ACAGCGAT,-0.111
8,CGGCTCCA,0.198
9,ACCAATTC,0.00772
10,ATTCCGCC,0.16
11,CAAACAGA,0.0849
12,CCAGTGCG,-0.0822
13,CATGTTGC,-0.139
14,ACCCGTAT,0.0115
15,GCGTCTAC,0.0222
16,AGATTCTA,0.124
17,AATTAAAC,0.149
18,CACGAATA,0.0228
19,CAAAGTAC,0.106
20,AGGCTTAG,-0.153
21,GCAAGGAA,0.032
22,CAGGTCGG,-0.119
23,ACCACTTA,-0.0262
24,GCAGGAGA,-0.0394
25,CTATCCGC,0.23

row,Sequence,PBM E-score
1,CTTATTGA,0.208
2,GACCCAGC,-0.245
3,ATACTACG,0.0265
4,CAGCCATC,-0.24
5,AGCGGGCG,-0.0488
6,CGAAACCA,0.173
7,ACCGATAT,0.0777
8,CATCAATA,0.00105
9,AACATTAC,0.0941
10,CGAACCCG,0.0612
11,CAATAGGA,-0.0319
12,ACAAACGC,0.0505
13,ACGCCGAA,0.343
14,AGATGGGC,-0.0184
15,TAGTAATA,0.116
16,ACTAGGGA,-0.319
17,ACTACCAT,-0.106
18,AAGCTTAT,0.134
19,AACAACAC,0.122
20,AAGAGACT,0.0216
21,CCATTCGG,0.124
22,CTCGGTAA,0.256
23,AGATATCT,0.0747
24,ACCGTTAA,0.0476
25,GAGTTTGA,0.0131

row,Sequence,PBM E-score
1,ACGGAAAC,0.306
2,ACCTGGCC,-0.0503
3,CATATACG,0.0731
4,ATTTATCG,0.103
5,CGAGTGCC,-0.0795
6,AACAAGGA,0.113
7,CCTGGGCG,-0.191
8,GGAGCTCC,-0.106
9,GGTCGGCA,0.112
10,AAGAGGCT,-0.281
11,ACATCTTC,0.122
12,GATCGCGC,0.024
13,TCCCTAGA,0.079
14,CGTTCATA,-0.0483
15,CAACCTGA,-0.12
16,CACGATAA,0.278
17,CATGCCGC,0.181
18,ATACAACC,-0.00525
19,ACCGATGA,0.0642
20,CCCATTCA,-0.147
21,ACTTGAAA,0.107
22,ATGGCCGC,-0.008
